The source of these data is article PMC10963788.

By UniProt entry, the sequences of proteins in these tests, tags left out. Where a name states a change or a piece, a line headed by the entry shows the natural chain unless it says otherwise.
UniProt O75396: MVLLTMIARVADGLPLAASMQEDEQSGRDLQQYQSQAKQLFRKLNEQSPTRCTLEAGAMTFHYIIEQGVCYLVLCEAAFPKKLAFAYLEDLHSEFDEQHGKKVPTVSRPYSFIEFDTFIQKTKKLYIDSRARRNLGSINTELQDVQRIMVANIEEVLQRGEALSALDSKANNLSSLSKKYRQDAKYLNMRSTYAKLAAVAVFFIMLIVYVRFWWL
UniProt Q13277: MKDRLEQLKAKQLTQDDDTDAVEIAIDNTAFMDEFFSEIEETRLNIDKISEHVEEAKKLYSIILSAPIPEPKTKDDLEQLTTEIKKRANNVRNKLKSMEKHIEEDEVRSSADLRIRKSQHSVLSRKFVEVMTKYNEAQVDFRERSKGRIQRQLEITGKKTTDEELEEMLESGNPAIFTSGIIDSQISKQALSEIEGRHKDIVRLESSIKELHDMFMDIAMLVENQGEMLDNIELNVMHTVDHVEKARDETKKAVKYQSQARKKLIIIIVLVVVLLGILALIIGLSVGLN

One assay addresses T1, Flag-FKBP51-His (UniProt Q13451).
T1 sequence: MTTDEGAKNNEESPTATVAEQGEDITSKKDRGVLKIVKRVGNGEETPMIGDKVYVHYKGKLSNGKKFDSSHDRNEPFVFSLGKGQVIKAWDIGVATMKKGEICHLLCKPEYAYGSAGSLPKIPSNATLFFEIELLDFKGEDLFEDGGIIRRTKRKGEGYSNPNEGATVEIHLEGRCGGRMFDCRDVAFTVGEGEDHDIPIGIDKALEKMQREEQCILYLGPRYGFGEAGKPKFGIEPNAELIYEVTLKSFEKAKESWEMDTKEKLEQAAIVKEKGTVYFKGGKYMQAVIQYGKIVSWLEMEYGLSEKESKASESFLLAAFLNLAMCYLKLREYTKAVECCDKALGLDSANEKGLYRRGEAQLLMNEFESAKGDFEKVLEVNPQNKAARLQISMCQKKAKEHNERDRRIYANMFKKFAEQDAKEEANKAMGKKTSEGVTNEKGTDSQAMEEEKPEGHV
The assay is described as follows: pull-down; 200 ng Flag-FKBP51-His as bait on BSA-blocked antibody-conjugated protein G Dynabeads; 100 ng SEC22B-HIS; 400 μl binding buffer (Promega, V870B); eluted at room temperature and at 95 °C; both purified.

Assay [1] addresses T2, HIS-SKA2 (Abcam, AB199577-1001) (UniProt Q8WVK7).
T2 sequence: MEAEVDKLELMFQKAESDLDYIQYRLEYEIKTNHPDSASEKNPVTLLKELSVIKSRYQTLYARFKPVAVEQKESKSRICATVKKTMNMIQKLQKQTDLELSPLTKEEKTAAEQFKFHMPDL
The assay can be described thus: pull-down; HIS pull-down: 200 ng HIS-SKA2 immobilised on BSA-blocked anti-His protein G Dynabeads; 100 ng purified DDK-tagged protein; 400 μl binding buffer (Promega, V870B); eluted at room temperature and at 95 °C; western blot against HIS and FLAG; both purified. A general note: A western blot detects proteins with antibodies after separation by electrophoresis.

No constants are given. Whether binding was seen depends on the method and setting. For some assays here: Binding can be weak; no strength is given. Sequences can lack the tags named with a protein.

Consider “SEC22B-HIS (Origene, AR50533PU-S) (from UniProt O75396)”, for which the binding entry with Flag-FKBP51-His is listed as “binds”.
In the case of “Syntaxin3-DDK (Origene, TP300658) (from UniProt Q13277)”, the binding result in assay [1] is reported as “no binding (tested: 100 ng in 400 μl)”.
